Where a SMILES comes first, the peptide text is derived from it.
System: hypoxic primary rat fibroblasts
Assay: Phosphoproteomics (LC-MS/MS) and pathway analysis under chronic hypoxia
Format: cell-based
Settings: 1 mM, 10 mM and 100 mM pooled
Experimental: In order to mimic the hypoxic micro-environment, primary rat fibroblasts were exposed to hypoxia. Cells were exposed to 2 separate conditions—continuous and episodic hypoxia. For continuous hypoxia, cells were incubated in a hypoxic chamber (2% 02) for 48 h and treated with or without L-alanyl-L-glutamine and no restoration to normoxia as shown in FIG. 1C. Cells were collected and processed for experiments subsequently.
Following fibroblast isolation from sciatic nerves of rats, (8E10 primary fibroblasts) were lysed in 80 ul of 8M Urea, 0.1M ammonium bicarbonate, phosphatase inhibitors (Sigma P5726&P0044) by sonication (Bioruptor, 10 cycles, 30 seconds on/off, Diagenode, Belgium) and proteins were digested as described previously (PMID:27345528). Shortly, proteins were reduced with 5 mM TCEP for 60 min at 37° C. and alkylated with 10 mM chloroacetamide for 30 min at 37° C. After diluting samples with 100 mM ammonium bicarbonate buffer to a final urea concentration of 1.6M, proteins were digested by incubation with sequencing-grade modified trypsin (1/50, w/w; Promega, Madison, Wisconsin) for 12 h at 37° C. After acidification using 5% TFA, peptides were desalted using C18 reverse-phase spin columns (Macrospin, Harvard Apparatus) according to the manufacturer's instructions, dried under vacuum and stored at −20° C. until further use.
Peptide samples were enriched for phosphorylated peptides using Fe(III)-IMAC cartridges on an AssayMAP Bravo platform as recently described (PMID: 28107008). Phospho-enriched peptides were resuspended in 0.1% aqueous formic acid and subjected to LC-MS/MS analysis using a Q-Exactive plus mass spectrometer fitted with an EASY-nLC 1000 (both Thermo Fisher Scientific) and a custom-made column heater set to 60° C. Peptides were resolved using a RP-HPLC column (75 μm×30 cm) packed in-house with C18 resin (ReproSil-Pur C18-AQ, 1.9 μm resin; Dr. Maisch GmbH) at a flow rate of 0.2 μL/min. […]

**Q.** For `C[C@H](N)C(=O)N[C@@H](CCC(N)=O)C(=O)O` [L-alanyl-L-glutamine] (H-Ala-Gln-OH), which “proteins significantly regulated vs 0 mM hypoxic samples” value (of 5110 proteins profiled) is on record?
**A.** The value was 1322.

**Q.** What about the proteins significantly downregulated (out of 1322) of the same molecule?
**A.** Its proteins significantly downregulated is 607.

**Q.** What about the proteins significantly upregulated (out of 1322) of the same molecule?
**A.** The proteins significantly upregulated was 715.
